Results from the supplement of paper PMC11732987, “Enantioselective OTUD7B fragment discovery through chemoproteomics screening and high-throughput optimisation” (Communications Chemistry, 2025).
The other results are listed elsewhere or left out. The data scatter; read single values as rough.

How the values were obtained:
[1] = compound: ClCC(=O)N[C@@H]1CCCc2ccccc12; assay: log2 mean competition ratio of IA-DTB cysteine labelling (DMSO/compound) (log2 ratio); higher = stronger cysteine engagement by compound; conditions: treatment time: 4 h, cell line lysate: HEK293T
Experimental: (§1)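 IA-DTB competitive cysteine chemoproteomics in HEK293T RIPA lysate. Lysates were treated with compound 29 or 30 at 50 or 200 µM for 4 h, then IA-DTB (500 µM, 1 h), trypsin-digested, NeutrAvidin-enriched and analysed by diaPASEF. Competition ratio = intensity DMSO / intensity compound (n=4 treated, n=64 DMSO); binding: mean log2 CR ≥ 1 and p ≤ 0.05 plus QC filters. Target is the cysteine site.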

[2] = compound: ClCC(=O)N[C@H]1CCCc2ccccc12; assay: as above; conditions: treatment time: 4 h, cell line lysate: HEK293T
Experimental: as §1

Row | Target | log2 mean competition ratio ([1]; 50 µM) | log2 mean competition ratio ([1]; 200 µM) | log2 mean competition ratio ([2]; 50 µM) | log2 mean competition ratio ([2]; 200 µM)
1 | GTF3C4 C376 (UniProt Q9UKN8) | 0.3 | -0.421 | -0.351 | -0.183
2 | HOOK3 C429 (UniProt Q86VS8) | 0.0676 | -0.486 | – | –
3 | HECTD1 C1995 (UniProt Q9ULT8) | 0.145 | 0.219 | -0.308 | 0.13
4 | GTPBP1 C531 (UniProt O00178) | -0.359 | 0.224 | -0.0202 | 0.196
5 | GTF3C1 C1673 (UniProt Q12789) | 0.33 | -0.0123 | 0.866 | 0.174
6 | HES1 C128 (UniProt Q14469) | -0.129 | -0.031 | -0.227 | -0.0834
7 | HERC5 C585 (UniProt Q9UII4) | -0.188 | 0.417 | -0.22 | 0.241
8 | GTF3C4 C257 (UniProt Q9UKN8) | 0.116 | -0.0528 | 0.143 | -0.0395
9 | GTF2I C475 (UniProt P78347) | 0.0636 | 0.144 | 0.243 | 0.285
10 | GZF1 C282 (UniProt Q9H116) | -0.192 | 0.194 | -0.242 | -0.0322
11 | HELZ2 C1545 (UniProt Q9BYK8) | -0.0422 | 0.444 | -0.424 | -0.224
12 | HNRNPUL2 C308 (UniProt Q1KMD3) | 0.198 | -0.147 | 0.0429 | -0.152
13 | HECTD3 C112 (UniProt Q5T447) | 0.0778 | 0.229 | -0.474 | 0.0447
14 | HEATR3 C446 (UniProt Q7Z4Q2) | 0.41 | 0.278 | 0.0552 | 0.29
15 | HAUS6 C323 (UniProt Q7Z4H7) | -0.0975 | -0.147 | -0.128 | -0.163
16 | HAUS6 C208 (UniProt Q7Z4H7) | -0.16 | -0.0313 | -0.228 | 0.0376
17 | GTF3C4 C441 (UniProt Q9UKN8) | -0.17 | -0.178 | -0.273 | -0.157
18 | HBS1L C529 (UniProt Q9Y450) | -0.245 | -0.0266 | -0.426 | 0.0087
19 | HMCES C7 (UniProt Q96FZ2) | 0.465 | -0.511 | 0.103 | -0.402
20 | HINT1 C84 (UniProt P49773) | -0.183 | -0.17 | 0.302 | -0.172
21 | GTF2I C215 (UniProt P78347) | -0.0441 | -0.234 | 0.0927 | -0.138

An excerpt from above, reduced to log2 mean competition ratio ([2]; 200 µM):
Row	Target	log2 mean competition ratio ([2]; 200 µM)
11	HELZ2 C1545 (UniProt Q9BYK8)	-0.224
17	GTF3C4 C441 (UniProt Q9UKN8)	-0.157

(next part)

Row | Target | log2 mean competition ratio ([1]; 50 µM) | log2 mean competition ratio ([1]; 200 µM) | log2 mean competition ratio ([2]; 50 µM) | log2 mean competition ratio ([2]; 200 µM)
22 | HLCS C289 (UniProt P50747) | 0.262 | -0.0244 | 0.648 | -0.103
23 | HMCES C18 (UniProt Q96FZ2) | -0.0148 | -0.15 | -0.0318 | -0.0514
24 | GTSE1 C436 (UniProt Q9NYZ3) | 0.0865 | 0.248 | 0.0609 | 0.258
25 | HIP1 C220 (UniProt O00291) | 0.175 | 0.885 | 0.345 | 0.869
26 | HEATR5B C1896 (UniProt Q9P2D3) | 0.376 | 0.0792 | -0.361 | 0.0364
27 | HNRNPUL2 C57 (UniProt Q1KMD3) | -0.206 | -0.0571 | 0.489 | -0.0903
28 | HERC2 C349 (UniProt O95714) | -0.0102 | 0.0914 | 0.188 | 0.0111
29 | GTF2I C745 (UniProt P78347) | 0.0767 | 0.0119 | 0.0677 | 0.0134
30 | HLA-B C349 | -0.176 | -0.388 | 0.539 | -0.223
31 | HECTD1 C123 (UniProt Q9ULT8) | -0.0521 | -0.111 | -0.109 | -0.0989
32 | HEATR5B C625 (UniProt Q9P2D3) | 0.357 | 0.0599 | -0.0877 | 0.0278
33 | HK2 C813 (UniProt P52789) | 0.239 | 0.416 | 0.161 | 0.0593
34 | GXYLT1 C196 (UniProt Q4G148) | 0.195 | 0.727 | 0.108 | 0.408
35 | HEXB C309 (UniProt P07686) | 0.468 | -0.0998 | 0.265 | -0.136
36 | HECTD3 C592 (UniProt Q5T447) | -0.163 | 0.0383 | 0.09 | 0.201
37 | HMMR C242 (UniProt O75330) | -0.241 | 0.0136 | -0.501 | -0.246
38 | GTF3C1 C431 (UniProt Q12789) | 0.405 | 0.341 | 0.489 | 0.362
39 | HOXB8 C215 | -0.211 | -0.0939 | -0.0859 | 0.0363
40 | GSTM3 C39 (UniProt P21266) | -0.0451 | -0.3 | -0.0923 | -0.224
41 | HGH1 C51 (UniProt Q9BTY7) | 0.128 | 0.131 | 0.252 | 0.0913
